{"source": "patent US4543349A", "about": "(priority 1984, dated 1985)", "key": {"[1]": {"assay": "general procedure: Boc solid-phase peptide synthesis; Boc-Cys-Merrifield resin (Example 7); DCC / 1-hydroxybenzotriazole (solution tail coupling)", "settings": "late stage modification step"}, "[2]": {"assay": "general procedure: Boc solid-phase peptide synthesis; Merrifield resin; DCC / 1-hydroxybenzotriazole (solution tail coupling)", "settings": "whole synthesis, scale 0.5 mmole"}}, "note": "For part of these data: Strings that start with PEPTIDE1 are HELM notation: dots part the residues, brackets hold end groups and non-standard residues.", "data": [{"substance": "PEPTIDE1{[Pmp].[dY].F.V.N.C.P.[Cad]}$PEPTIDE1,PEPTIDE1,1:R3-6:R3$$$V2.0", "values": [{"measurement": "step yield", "setting": "[1]", "value": 17, "unit": "%"}]}, {"substance": "D-Tyr(Et)^2 -Pro^7 peptide", "values": [{"measurement": "isolated mass", "setting": "[2]", "value": 189, "unit": "mg"}]}, {"substance": "PEPTIDE1{[Pmp].[D-Tyr(Et)].F.V.N.C.P.[Cad]}$PEPTIDE1,PEPTIDE1,1:R3-6:R3$$$V2.0", "values": [{"measurement": "step yield", "setting": "[1]", "value": 30, "unit": "%"}]}, {"substance": "PEPTIDE1{[Pmp].[D-Tyr(Et)].F.V.N.C.P.[Put(G)]}$PEPTIDE1,PEPTIDE1,1:R3-6:R3$$$V2.0", "values": [{"measurement": "step yield", "setting": "[1]", "value": 64, "unit": "%"}, {"measurement": "final purity (method not given)", "setting": "[1]; HPLC (5μ Ultrasphere ODS / C-18)", "value": 85, "unit": "%"}]}, {"substance": "PEPTIDE1{[Pmp].[D-Tyr(Et)].F.V.N.C.[Cad]}$PEPTIDE1,PEPTIDE1,1:R3-6:R3$$$V2.0", "values": [{"measurement": "step yield", "setting": "[1]", "value": 13, "unit": "%"}]}]}
